{"source": "PubChem BioAssay AID1259331 (Drosophila RNAi Screening Center, 2017)", "assay": "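Fly transmembrane-protein genes that affect zinc toxicity in cultured cells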 (primary screen)", "cells": "Drosophila S2R+ cells", "reagent": "long dsRNA against Drosophila genes", "duration": "5 days (4 days knock-down, then 1 day zinc)", "challenge": "zinc chloride at 15 mM final level for 1 day", "read-out": "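Total cellular ATP measured by luciferase luminescence as a viability proxy, turned into Z scores from three plate copies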", "reading the numbers": "mean Z score: higher = more ATP than other wells, better survival under zinc; ATP luminescence: higher = more ATP, more viable cells", "active means": "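Hit when the absolute Z score is greater than 1.5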", "calls": "active = hit, ATP up or down; inactive = not a hit", "note": "Here is one part, drawn at random, of about 3,100 reagents tested. 126 of them (4.1%) count as active. 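Calls are per reagent; zinc was so toxic that few knock-downs lowered ATP further, so most hits raise ATP.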 Raw values are not corrected between plates. The numbers tell different reagents against one gene apart. The record does not give: the amount of reagent."}
{"gene knocked down": "Gr10b", "reagent no.": 1, "mean Z score": -0.366, "ATP luminescence, replicate 1": 58594, "ATP luminescence, replicate 2": 61404, "Call": "inactive"}
{"gene knocked down": "Gr10b", "reagent no.": 2, "mean Z score": -0.215, "ATP luminescence, replicate 1": 58626, "ATP luminescence, replicate 2": 57520, "Call": "inactive"}
{"gene knocked down": "ppk13", "reagent no.": 1, "mean Z score": -0.577, "ATP luminescence, replicate 1": 41788, "ATP luminescence, replicate 2": 31245, "Call": "inactive"}
{"gene knocked down": "Osi4", "reagent no.": 1, "mean Z score": -0.289, "ATP luminescence, replicate 1": 69961, "ATP luminescence, replicate 2": 52915, "Call": "inactive"}
{"gene knocked down": "Osi4", "reagent no.": 2, "mean Z score": -0.703, "ATP luminescence, replicate 1": 53824, "ATP luminescence, replicate 2": 47994, "Call": "inactive"}
{"gene knocked down": "CG4476", "reagent no.": 1, "mean Z score": 0.0679, "ATP luminescence, replicate 1": 72002, "ATP luminescence, replicate 2": 64885, "Call": "inactive"}
{"gene knocked down": "CG4476", "reagent no.": 2, "mean Z score": 0.222, "ATP luminescence, replicate 1": 61438, "ATP luminescence, replicate 2": 68246, "Call": "inactive"}
{"gene knocked down": "VhaAC45", "reagent no.": 1, "mean Z score": -0.671, "ATP luminescence, replicate 1": 25245, "ATP luminescence, replicate 2": 25948, "Call": "inactive"}
{"gene knocked down": "VhaAC45", "reagent no.": 2, "mean Z score": 1.63, "ATP luminescence, replicate 1": 81653, "ATP luminescence, replicate 2": 77405, "Call": "active"}
{"gene knocked down": "CG30048", "reagent no.": 1, "mean Z score": 0.528, "ATP luminescence, replicate 1": 57305, "ATP luminescence, replicate 2": 52572, "Call": "inactive"}
{"gene knocked down": "CG30048", "reagent no.": 2, "mean Z score": 0.199, "ATP luminescence, replicate 1": 55659, "ATP luminescence, replicate 2": 75656, "Call": "inactive"}
{"gene knocked down": "CG33203", "reagent no.": 1, "mean Z score": -0.128, "ATP luminescence, replicate 1": 59226, "ATP luminescence, replicate 2": 68727, "Call": "inactive"}
{"gene knocked down": "CG33203", "reagent no.": 2, "mean Z score": 0.643, "ATP luminescence, replicate 1": 70116, "ATP luminescence, replicate 2": 72517, "Call": "inactive"}

Just “ATP luminescence, replicate 1” (2 entries from above):
Gr10b #2: 58626
ppk13: 41788
